The other results are listed elsewhere or left out.
Key:
Test in all cases: log2 fold change, soluble protein after heating vs DMSO (PISA); higher = thermal stabilisation; K562 cells, 10 uM, 30 min; active = over 0.2 and 3.5 SD of the protein, either way, in both replicates (recomputed)
[1] = compound: CC1=C(C=C(C=C1)NC(=O)C2=CC(=CC=C2)C(C)(C)C#N)NC3=CC4=C(C=C3)N=CN(C4=O)C
Outline: (§1)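 Values are thermal stability changes relative to control samples and are taken from duplicates. They are stated as log2 fold changes. Before quantification by TMTpro 16plex LC-MS/MS with equalised channel sums, K562 cells at 2×10^6 cells/mL were treated with 10 μM compound for 30 min, heated in aliquots for 3 min across 48°C-58°C, pooled, extracted in PBS with 0.5% NP-40 at 4°C, and centrifuged at 21,000xg for 90 min to give the soluble supernatant.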

Sequences of proteins named here, by UniProt entry; tags and fusion partners are left off. A change or cut given only in a name is not applied to a line headed by its entry.
UniProt Q14686, whole entry, looked up: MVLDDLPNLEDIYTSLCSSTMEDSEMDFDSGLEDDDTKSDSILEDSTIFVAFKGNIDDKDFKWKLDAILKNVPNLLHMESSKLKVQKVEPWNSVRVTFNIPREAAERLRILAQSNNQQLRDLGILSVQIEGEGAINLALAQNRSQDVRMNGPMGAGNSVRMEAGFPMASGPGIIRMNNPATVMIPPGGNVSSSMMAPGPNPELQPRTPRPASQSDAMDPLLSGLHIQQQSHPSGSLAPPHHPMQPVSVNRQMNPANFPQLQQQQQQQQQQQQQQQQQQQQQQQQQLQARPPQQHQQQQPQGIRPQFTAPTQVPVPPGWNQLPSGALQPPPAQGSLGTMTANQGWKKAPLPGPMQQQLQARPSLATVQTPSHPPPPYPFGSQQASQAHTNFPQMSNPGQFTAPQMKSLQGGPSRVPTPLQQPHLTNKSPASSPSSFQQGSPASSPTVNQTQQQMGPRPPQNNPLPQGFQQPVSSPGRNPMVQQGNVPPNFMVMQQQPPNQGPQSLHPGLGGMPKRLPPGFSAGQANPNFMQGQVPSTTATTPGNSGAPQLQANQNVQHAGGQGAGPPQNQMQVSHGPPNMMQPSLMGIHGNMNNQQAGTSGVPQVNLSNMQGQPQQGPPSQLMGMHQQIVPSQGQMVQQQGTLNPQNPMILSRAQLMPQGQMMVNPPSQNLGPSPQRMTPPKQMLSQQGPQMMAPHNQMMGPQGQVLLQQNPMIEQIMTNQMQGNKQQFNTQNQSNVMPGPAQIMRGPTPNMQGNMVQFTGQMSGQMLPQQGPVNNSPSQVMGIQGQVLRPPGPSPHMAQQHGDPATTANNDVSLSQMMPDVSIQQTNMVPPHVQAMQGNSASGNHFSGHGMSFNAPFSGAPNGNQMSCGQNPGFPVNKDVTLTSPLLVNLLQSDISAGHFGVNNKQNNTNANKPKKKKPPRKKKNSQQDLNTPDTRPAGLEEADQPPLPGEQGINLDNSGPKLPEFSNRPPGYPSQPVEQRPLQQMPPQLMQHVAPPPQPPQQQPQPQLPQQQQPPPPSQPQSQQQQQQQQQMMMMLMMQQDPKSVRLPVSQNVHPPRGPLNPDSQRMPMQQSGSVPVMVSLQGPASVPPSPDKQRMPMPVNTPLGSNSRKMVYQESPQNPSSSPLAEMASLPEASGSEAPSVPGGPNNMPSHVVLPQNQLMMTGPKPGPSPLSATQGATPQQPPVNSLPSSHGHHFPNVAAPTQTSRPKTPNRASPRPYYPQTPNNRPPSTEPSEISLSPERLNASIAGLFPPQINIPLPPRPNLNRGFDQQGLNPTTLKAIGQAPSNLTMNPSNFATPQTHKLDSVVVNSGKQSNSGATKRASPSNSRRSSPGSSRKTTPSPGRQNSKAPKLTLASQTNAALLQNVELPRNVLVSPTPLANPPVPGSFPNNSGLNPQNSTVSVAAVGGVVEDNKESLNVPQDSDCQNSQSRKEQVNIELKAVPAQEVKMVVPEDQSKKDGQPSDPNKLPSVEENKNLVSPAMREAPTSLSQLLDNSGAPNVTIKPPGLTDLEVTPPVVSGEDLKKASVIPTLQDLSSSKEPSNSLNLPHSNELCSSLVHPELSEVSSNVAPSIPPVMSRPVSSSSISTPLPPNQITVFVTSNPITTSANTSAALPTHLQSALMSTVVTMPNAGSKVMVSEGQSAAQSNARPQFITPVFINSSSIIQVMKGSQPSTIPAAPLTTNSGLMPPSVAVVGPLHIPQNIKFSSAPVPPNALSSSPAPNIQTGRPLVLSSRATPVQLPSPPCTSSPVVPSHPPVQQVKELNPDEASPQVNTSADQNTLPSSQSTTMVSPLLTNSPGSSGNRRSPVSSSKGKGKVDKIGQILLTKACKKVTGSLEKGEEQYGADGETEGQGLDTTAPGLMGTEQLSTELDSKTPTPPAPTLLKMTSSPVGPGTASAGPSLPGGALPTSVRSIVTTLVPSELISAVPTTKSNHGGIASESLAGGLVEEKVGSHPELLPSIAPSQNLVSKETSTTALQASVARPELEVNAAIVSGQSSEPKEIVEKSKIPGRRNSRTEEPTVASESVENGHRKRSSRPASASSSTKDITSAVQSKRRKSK
UniProt Q8IW45: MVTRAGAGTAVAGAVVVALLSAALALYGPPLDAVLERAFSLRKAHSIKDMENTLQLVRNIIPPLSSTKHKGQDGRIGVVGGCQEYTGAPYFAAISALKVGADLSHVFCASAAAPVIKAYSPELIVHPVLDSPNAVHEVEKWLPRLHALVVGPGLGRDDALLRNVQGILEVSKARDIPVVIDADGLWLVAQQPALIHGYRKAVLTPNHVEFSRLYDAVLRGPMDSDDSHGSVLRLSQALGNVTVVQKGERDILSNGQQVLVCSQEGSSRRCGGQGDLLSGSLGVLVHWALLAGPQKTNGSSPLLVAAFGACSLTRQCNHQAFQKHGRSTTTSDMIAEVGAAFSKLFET
UniProt Q9UGV2: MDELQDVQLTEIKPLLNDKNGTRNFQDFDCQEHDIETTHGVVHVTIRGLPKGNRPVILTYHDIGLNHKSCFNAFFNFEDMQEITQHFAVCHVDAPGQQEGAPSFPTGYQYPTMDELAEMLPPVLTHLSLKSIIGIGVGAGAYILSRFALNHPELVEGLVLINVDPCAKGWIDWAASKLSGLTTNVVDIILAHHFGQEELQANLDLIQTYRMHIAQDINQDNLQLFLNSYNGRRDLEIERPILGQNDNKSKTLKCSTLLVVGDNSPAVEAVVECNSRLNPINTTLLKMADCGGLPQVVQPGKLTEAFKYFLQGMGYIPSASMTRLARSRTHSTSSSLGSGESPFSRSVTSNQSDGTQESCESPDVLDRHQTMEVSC
UniProt O76041: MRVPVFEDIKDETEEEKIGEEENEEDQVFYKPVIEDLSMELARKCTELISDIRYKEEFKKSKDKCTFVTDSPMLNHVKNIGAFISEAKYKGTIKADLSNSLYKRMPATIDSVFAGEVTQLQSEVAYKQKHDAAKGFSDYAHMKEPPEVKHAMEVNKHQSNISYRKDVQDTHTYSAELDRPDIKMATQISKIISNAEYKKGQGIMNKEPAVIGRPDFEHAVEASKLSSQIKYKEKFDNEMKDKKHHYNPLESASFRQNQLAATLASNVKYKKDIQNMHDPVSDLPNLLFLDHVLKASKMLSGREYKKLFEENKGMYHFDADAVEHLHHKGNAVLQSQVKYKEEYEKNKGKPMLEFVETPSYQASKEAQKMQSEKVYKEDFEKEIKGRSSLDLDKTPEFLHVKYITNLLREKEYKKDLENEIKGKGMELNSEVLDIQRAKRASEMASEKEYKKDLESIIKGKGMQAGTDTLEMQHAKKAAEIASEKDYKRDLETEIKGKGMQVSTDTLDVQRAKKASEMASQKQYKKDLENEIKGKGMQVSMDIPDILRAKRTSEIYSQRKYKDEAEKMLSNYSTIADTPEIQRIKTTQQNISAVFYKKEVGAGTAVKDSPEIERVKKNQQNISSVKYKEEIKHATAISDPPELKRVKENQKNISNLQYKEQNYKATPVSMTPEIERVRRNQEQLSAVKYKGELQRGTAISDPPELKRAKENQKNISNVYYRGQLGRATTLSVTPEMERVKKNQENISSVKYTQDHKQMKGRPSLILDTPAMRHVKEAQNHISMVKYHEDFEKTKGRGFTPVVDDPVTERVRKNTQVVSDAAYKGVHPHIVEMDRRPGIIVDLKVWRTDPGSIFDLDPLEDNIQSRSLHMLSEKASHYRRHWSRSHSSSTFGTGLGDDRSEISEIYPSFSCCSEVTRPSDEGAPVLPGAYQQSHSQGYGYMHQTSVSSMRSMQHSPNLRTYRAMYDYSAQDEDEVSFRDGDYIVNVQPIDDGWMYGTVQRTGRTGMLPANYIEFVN
UniProt Q96HR8: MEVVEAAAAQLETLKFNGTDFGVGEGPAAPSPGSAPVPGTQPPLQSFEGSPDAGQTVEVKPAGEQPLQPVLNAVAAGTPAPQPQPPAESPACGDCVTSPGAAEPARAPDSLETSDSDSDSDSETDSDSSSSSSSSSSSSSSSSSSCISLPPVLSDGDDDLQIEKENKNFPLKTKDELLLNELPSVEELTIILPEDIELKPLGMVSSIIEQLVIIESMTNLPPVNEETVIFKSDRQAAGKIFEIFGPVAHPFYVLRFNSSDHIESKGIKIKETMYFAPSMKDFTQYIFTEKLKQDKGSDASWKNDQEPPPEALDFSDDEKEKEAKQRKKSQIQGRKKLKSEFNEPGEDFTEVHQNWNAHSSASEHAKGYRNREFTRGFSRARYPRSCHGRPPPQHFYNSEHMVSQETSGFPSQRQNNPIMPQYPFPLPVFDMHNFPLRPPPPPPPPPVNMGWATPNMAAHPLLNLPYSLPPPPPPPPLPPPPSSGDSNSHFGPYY
UniProt P49321, whole entry, looked up: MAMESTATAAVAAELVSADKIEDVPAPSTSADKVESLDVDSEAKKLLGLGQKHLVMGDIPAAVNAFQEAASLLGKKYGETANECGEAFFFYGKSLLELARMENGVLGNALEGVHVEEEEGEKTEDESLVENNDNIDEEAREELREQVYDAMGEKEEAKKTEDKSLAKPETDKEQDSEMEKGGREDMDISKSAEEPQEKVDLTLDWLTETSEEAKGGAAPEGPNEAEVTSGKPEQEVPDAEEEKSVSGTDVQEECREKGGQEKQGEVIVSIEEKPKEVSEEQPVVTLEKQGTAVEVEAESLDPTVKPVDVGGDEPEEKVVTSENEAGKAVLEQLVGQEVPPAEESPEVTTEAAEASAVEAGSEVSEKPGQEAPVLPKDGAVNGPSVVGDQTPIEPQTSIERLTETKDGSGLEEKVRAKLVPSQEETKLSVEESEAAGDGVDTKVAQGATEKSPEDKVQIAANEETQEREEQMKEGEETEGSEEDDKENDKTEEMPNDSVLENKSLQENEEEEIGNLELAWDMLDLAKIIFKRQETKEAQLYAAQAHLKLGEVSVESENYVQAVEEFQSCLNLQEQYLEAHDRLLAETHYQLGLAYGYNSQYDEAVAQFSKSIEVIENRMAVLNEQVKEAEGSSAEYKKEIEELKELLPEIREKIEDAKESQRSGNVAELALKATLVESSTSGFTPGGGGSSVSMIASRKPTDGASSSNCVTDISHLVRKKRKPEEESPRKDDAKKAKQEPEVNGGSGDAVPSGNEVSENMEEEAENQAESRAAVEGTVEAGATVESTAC
UniProt Q9BRA0: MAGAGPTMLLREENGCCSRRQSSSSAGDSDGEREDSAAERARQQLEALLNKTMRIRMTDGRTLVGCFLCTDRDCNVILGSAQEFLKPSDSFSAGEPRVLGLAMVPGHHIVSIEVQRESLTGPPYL
UniProt Q9NR45: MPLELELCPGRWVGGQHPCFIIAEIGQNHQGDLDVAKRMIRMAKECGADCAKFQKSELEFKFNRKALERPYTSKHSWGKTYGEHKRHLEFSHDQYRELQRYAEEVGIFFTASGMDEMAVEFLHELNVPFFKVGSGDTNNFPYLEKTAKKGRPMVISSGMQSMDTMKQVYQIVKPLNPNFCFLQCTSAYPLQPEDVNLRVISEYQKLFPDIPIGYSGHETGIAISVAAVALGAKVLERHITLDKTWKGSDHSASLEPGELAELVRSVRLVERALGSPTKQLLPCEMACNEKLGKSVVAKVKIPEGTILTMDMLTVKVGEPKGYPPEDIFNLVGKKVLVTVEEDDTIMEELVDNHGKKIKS
UniProt Q02083: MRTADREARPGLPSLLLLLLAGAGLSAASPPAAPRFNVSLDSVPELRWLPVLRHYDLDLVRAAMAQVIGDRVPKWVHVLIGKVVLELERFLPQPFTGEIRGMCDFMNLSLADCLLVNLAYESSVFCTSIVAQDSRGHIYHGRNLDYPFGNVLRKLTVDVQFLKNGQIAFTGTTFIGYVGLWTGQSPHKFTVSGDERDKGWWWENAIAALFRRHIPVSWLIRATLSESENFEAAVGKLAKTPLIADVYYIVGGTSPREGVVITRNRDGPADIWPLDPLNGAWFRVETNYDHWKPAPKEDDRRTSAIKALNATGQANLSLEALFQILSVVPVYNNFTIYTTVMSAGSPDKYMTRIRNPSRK
UniProt P17568, whole entry, looked up: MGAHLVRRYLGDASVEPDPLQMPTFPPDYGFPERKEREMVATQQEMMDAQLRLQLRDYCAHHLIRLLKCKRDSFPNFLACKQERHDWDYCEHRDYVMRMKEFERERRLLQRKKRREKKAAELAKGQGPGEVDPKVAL
UniProt Q9NV92: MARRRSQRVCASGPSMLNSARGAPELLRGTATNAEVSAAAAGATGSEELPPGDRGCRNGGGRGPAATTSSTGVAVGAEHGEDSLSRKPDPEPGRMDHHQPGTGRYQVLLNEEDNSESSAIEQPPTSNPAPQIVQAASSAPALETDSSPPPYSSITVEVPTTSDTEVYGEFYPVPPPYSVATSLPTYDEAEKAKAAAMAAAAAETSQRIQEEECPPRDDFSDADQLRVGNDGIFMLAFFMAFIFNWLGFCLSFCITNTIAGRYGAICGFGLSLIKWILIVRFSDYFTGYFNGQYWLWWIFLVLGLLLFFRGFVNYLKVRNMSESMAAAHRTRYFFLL

[2] = compound: CC1=C(C=C(C=C1)NC(=O)C2=CC(=CC=C2)N(C)C)NC(=O)C3=CC=C(C=C3)O
Outline: as §1

[3] = compound: CC1=CC=C(C=C1)SC2=C3C=C(SC3=CN=C2)C(=O)N
Outline: as §1

[4] = compound: CC1=NC(=CC=C1)C2=C(N=C(N2)C(C)(C)C)C3=CC4=NC=CN=C4C=C3
Outline: as §1

Nexturastat A = compound: CCCCN(Cc1ccc(C(=O)NO)cc1)C(=O)Nc1ccccc1 [Nexturastat A]
Outline: as §1

vemurafenib = compound: CCCS(=O)(=O)Nc1ccc(F)c(C(=O)c2c[nH]c3ncc(-c4ccc(Cl)cc4)cc23)c1F [vemurafenib]
Outline: as §1

[5] = compound: CCCS(=O)(=O)Nc1ccc(F)c(C(=O)c2c[nH]c3ncc(Cl)cc23)c1F
Outline: as §1

[6] = compound: CCCc1cc(C)[nH]c(=O)c1CNC(=O)c1cc(-c2ccnc(N3CCN(C)CC3)c2)cc2c1cnn2C(C)C
Outline: as §1

givinostat = compound: CCN(CC)Cc1ccc2cc(COC(=O)Nc3ccc(C(=O)NO)cc3)ccc2c1 [givinostat]
Outline: as §1

barasertib = compound: CCN(CCCOc1ccc2c(Nc3cc(CC(=O)Nc4cccc(F)c4)[nH]n3)ncnc2c1)CCOP(=O)(O)O [barasertib]
Outline: as §1

[7] = compound: CC[C@@H]1C(=O)N(C)c2cnc(Nc3ccc(C(=O)NC4CCN(C)CC4)cc3OC)nc2N1C1CCCC1
Outline: as §1

volasertib = compound: CC[C@@H]1C(=O)N(C)c2cnc(Nc3ccc(C(=O)N[C@H]4CC[C@H](N5CCN(CC6CC6)CC5)CC4)cc3OC)nc2N1C(C)C [volasertib]
Outline: as §1

[8] = compound: CC[C@H](C)N1C=C(C2=C(C=C(C=C21)C3=CN=C(C=C3)N4CCNCC4)C(=O)NCC5=C(C=C(NC5=O)C)C)C
Outline: as §1

epoxomicin = compound: CC[C@H](C)[C@@H](C(=O)N[C@@H]([C@@H](C)O)C(=O)N[C@@H](CC(C)C)C(=O)[C@]1(CO1)C)NC(=O)[C@H]([C@@H](C)CC)N(C)C(=O)C [epoxomicin]
Outline: as §1

[9] = compound: CCn1c(C(=O)N(C2CC2)C2CC2)cc2c3c(ncn3C)c(Nc3cc(C)n(C)n3)nc21
Outline: as §1

[10] = compound: CCn1cc(-c2ccnc3[nH]c(-c4cccc(CN(C)C)c4)cc23)c(-c2ccc(NC(=O)N(C)C)cc2)n1
Outline: as §1

[11] = compound: CN(C)CC(=O)Nc1ccc2[nH]c(=O)c3ccccc3c2c1
Outline: as §1

rosiglitazone = compound: CN(CCOC1=CC=C(C=C1)C[C@H]2C(=O)NC(=O)S2)C3=CC=CC=N3 (racemic) [rosiglitazone]
Outline: as §1

[12] = compound: CN1CCC(CNc2ccc3ncc(-c4cccc(OC(F)(F)F)c4)n3n2)CC1
Outline: as §1

[13] = compound: CN1C2=C(C3=C1C(=O)N(N=C3)CC4=CC(=CC=C4)N)SC(=C2)S(=O)C
Outline: as §1

Row | Target | log2 fold change [1] | log2 fold change [2] | log2 fold change [3] | log2 fold change [4] | log2 fold change (Nexturastat A) | log2 fold change (vemurafenib) | log2 fold change [5] | log2 fold change [6] | log2 fold change (givinostat) | log2 fold change (barasertib) | log2 fold change [7] | log2 fold change (volasertib) | log2 fold change [8] | log2 fold change (epoxomicin) | log2 fold change [9] | log2 fold change [10] | log2 fold change [11] | log2 fold change (rosiglitazone) | log2 fold change [12] | log2 fold change [13]
1 | NCOA6 (UniProt Q14686) | inactive: 0.064 | inactive: -0.056 | inactive: -0.023 | inactive: -0.025 | inactive: 0.036 | inactive: 0.212 | inactive: -0.058 | inactive: -0.067 | inactive: -0.008 | inactive: 0.119 | inactive: 0.124 | inactive: 0.155 | inactive: -0.013 | inactive: -0.058 | inactive: -0.04 | inactive: 0.246 | inactive: -0.089 | inactive: -0.004 | inactive: 0.157 | –
2 | NAXD (UniProt Q8IW45) | inactive: 0.021 | inactive: -0.004 | inactive: 0.037 | inactive: 0.005 | inactive: -0.025 | inactive: -0.002 | inactive: -0.007 | inactive: -0.027 | inactive: 0.031 | inactive: -0.01 | inactive: 0.012 | inactive: 0.085 | inactive: 0.062 | inactive: 0.106 | inactive: 0.038 | inactive: -0.129 | inactive: 0.01 | inactive: -0.021 | inactive: -0.061 | inactive: -0.027
3 | NA, A0A0B4J2A0 | inactive: 0.016 | inactive: -0.028 | inactive: 0.002 | inactive: -0.006 | inactive: -0.043 | inactive: 0.017 | inactive: 0.072 | inactive: -0.091 | inactive: 0.029 | inactive: 0.012 | inactive: -0.163 | inactive: -0.036 | inactive: 0.008 | inactive: 0.11 | – | inactive: -0.055 | inactive: -0.004 | – | inactive: -0.101 | inactive: -0.078
4 | NDRG3 (UniProt Q9UGV2) | inactive: 0.06 | inactive: 0.008 | inactive: 0.024 | inactive: 0.006 | inactive: -0.01 | inactive: -0.011 | inactive: 0.065 | inactive: 0.013 | inactive: -0.042 | inactive: -0.017 | inactive: -0.019 | inactive: -0.142 | inactive: -0.01 | inactive: 0.007 | inactive: 0 | inactive: -0.152 | inactive: 0.023 | inactive: 0.025 | inactive: 0.1 | inactive: -0.095
5 | NEBL (UniProt O76041) | inactive: -0.097 | inactive: 0.055 | inactive: 0.016 | inactive: -0.05 | inactive: -0.024 | inactive: -0.04 | inactive: -0.13 | inactive: 0.001 | inactive: 0.15 | inactive: 0.024 | inactive: 0.02 | inactive: 0.031 | inactive: 0.175 | inactive: -0.028 | inactive: -0.031 | – | inactive: -0.014 | inactive: -0.016 | – | inactive: 0.135
6 | NAF1 (UniProt Q96HR8) | inactive: -0.034 | inactive: -0.06 | inactive: -0.037 | inactive: 0.002 | inactive: 0.05 | inactive: 0.057 | inactive: -0.011 | inactive: 0.076 | inactive: 0.006 | inactive: -0.017 | inactive: 0.054 | inactive: 0.033 | inactive: -0.008 | inactive: -0.029 | inactive: -0.01 | inactive: 0.031 | inactive: 0.006 | inactive: -0.029 | inactive: -0.035 | inactive: 0.09
7 | NASP (UniProt P49321) | inactive: 0.012 | inactive: -0.033 | inactive: 0 | inactive: 0.009 | inactive: -0.058 | inactive: 0.037 | inactive: 0.038 | inactive: -0.006 | inactive: 0.001 | inactive: 0.027 | inactive: -0.118 | active: -0.277 | inactive: 0.049 | inactive: 0.046 | – | inactive: -0.03 | inactive: 0.004 | – | inactive: -0.051 | inactive: -0.061
8 | NAA38 isoform 2 (UniProt Q9BRA0) | inactive: 0.018 | inactive: 0.041 | inactive: 0.018 | inactive: -0.044 | inactive: 0.052 | inactive: 0.094 | inactive: 0.042 | inactive: -0.129 | inactive: 0.066 | inactive: -0.025 | inactive: -0.045 | inactive: -0.017 | inactive: -0.025 | inactive: 0.029 | active: 0.265 | inactive: -0.127 | inactive: -0.026 | – | inactive: 0.064 | inactive: -0.095
9 | NANS (UniProt Q9NR45) | inactive: 0.063 | inactive: -0.02 | inactive: 0.035 | inactive: 0.007 | inactive: -0.196 | inactive: -0.001 | inactive: 0.026 | inactive: 0.007 | inactive: -0.025 | inactive: 0.01 | inactive: 0.015 | inactive: -0.013 | inactive: 0.032 | inactive: 0.016 | – | inactive: -0.041 | inactive: 0.009 | – | inactive: 0.034 | active: -0.434
10 | NAAA (UniProt Q02083) | inactive: 0.201 | inactive: 0.042 | inactive: -0.198 | inactive: 0.252 | – | – | inactive: 0.03 | inactive: -0.042 | inactive: -0.002 | – | inactive: 0.252 | inactive: -0.078 | inactive: -0.319 | – | inactive: -0.046 | inactive: 0.073 | – | – | inactive: -0.373 | –
11 | NDUFB7 (UniProt P17568) | inactive: 0.037 | inactive: -0.006 | inactive: 0.063 | inactive: 0.027 | inactive: 0.023 | inactive: 0.018 | inactive: -0.014 | inactive: -0.124 | active: -0.367 | inactive: -0.012 | inactive: -0.053 | inactive: -0.004 | inactive: -0.072 | inactive: -0.066 | – | inactive: -0.099 | inactive: -0.036 | – | inactive: 0.094 | inactive: -0.058
12 | NDFIP2 (UniProt Q9NV92) | inactive: -0.704 | inactive: 0.147 | inactive: -0.057 | – | – | – | inactive: -0.094 | inactive: 0.076 | inactive: 0.028 | – | – | inactive: 0.005 | – | – | inactive: -0.065 | – | – | – | – | –

Complete entries, quoted from the list. Order of values: log2 fold change [1] | log2 fold change [2] | log2 fold change [3] | log2 fold change [4] | log2 fold change (Nexturastat A) | log2 fold change (vemurafenib) | log2 fold change [5] | log2 fold change [6] | log2 fold change (givinostat) | log2 fold change (barasertib) | log2 fold change [7] | log2 fold change (volasertib) | log2 fold change [8] | log2 fold change (epoxomicin) | log2 fold change [9] | log2 fold change [10] | log2 fold change [11] | log2 fold change (rosiglitazone) | log2 fold change [12] | log2 fold change [13]
NAXD (UniProt Q8IW45) as listed: inactive: 0.021 | inactive: -0.004 | inactive: 0.037 | inactive: 0.005 | inactive: -0.025 | inactive: -0.002 | inactive: -0.007 | inactive: -0.027 | inactive: 0.031 | inactive: -0.01 | inactive: 0.012 | inactive: 0.085 | inactive: 0.062 | inactive: 0.106 | inactive: 0.038 | inactive: -0.129 | inactive: 0.01 | inactive: -0.021 | inactive: -0.061 | inactive: -0.027
NAAA (UniProt Q02083) as listed: inactive: 0.201 | inactive: 0.042 | inactive: -0.198 | inactive: 0.252 | – | – | inactive: 0.03 | inactive: -0.042 | inactive: -0.002 | – | inactive: 0.252 | inactive: -0.078 | inactive: -0.319 | – | inactive: -0.046 | inactive: 0.073 | – | – | inactive: -0.373 | –
